Experimental data reported in doi:10.1101/2020.09.30.318253.
These are yes or no findings as the source states them, for the method shown. Binding seen in cells or lysates may run through a third protein. Here binding means that the protein was enriched with, or labelled near, the bait; the list need not be complete. For some of these results: A no says only that the protein was not detected with the bait. Where a sequence is shown, tags or fusion partners need not be part of it. Values belong to the molecule of their own block, whether it stands above or below them.

Chains of the proteins cited; added tags and fusions are not shown.
UniProt Q43125: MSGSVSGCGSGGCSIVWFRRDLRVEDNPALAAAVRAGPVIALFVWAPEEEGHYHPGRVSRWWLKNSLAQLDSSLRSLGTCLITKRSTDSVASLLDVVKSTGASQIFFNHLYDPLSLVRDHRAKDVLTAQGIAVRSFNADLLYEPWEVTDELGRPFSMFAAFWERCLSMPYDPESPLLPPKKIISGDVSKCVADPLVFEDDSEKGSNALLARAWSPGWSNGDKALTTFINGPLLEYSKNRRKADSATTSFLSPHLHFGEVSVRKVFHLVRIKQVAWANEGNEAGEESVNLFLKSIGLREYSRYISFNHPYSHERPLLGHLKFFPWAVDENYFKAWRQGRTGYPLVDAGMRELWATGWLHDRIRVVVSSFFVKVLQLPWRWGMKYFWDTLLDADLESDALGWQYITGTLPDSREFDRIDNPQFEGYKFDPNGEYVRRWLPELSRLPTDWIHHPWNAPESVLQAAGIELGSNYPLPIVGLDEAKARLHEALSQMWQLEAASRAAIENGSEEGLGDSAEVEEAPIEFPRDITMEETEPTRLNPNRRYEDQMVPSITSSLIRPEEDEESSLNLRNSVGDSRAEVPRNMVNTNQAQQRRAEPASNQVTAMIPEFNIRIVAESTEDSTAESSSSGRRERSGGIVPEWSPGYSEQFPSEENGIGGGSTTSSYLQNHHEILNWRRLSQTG
UniProt Q96524: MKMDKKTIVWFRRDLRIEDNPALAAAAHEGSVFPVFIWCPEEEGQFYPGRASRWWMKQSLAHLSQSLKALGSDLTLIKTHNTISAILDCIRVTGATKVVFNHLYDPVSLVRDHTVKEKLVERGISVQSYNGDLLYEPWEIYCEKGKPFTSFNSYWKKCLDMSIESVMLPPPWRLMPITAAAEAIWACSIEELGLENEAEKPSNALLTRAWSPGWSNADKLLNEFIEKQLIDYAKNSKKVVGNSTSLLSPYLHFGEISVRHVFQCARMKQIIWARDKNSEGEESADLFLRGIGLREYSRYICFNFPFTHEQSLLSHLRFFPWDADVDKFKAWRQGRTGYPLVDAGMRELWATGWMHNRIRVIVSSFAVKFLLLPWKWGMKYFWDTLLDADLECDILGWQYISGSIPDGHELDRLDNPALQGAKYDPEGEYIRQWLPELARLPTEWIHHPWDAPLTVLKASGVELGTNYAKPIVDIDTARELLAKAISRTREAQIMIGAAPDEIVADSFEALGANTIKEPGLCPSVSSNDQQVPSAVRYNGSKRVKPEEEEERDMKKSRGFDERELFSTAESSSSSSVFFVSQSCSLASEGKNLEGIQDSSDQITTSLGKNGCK

What was measured:
[1] = target: T1, GSRhino-TAP-tagged COP1 (Arabidopsis) (UniProt P43254); assay: affinity purification with mass spectrometry
T1 sequence: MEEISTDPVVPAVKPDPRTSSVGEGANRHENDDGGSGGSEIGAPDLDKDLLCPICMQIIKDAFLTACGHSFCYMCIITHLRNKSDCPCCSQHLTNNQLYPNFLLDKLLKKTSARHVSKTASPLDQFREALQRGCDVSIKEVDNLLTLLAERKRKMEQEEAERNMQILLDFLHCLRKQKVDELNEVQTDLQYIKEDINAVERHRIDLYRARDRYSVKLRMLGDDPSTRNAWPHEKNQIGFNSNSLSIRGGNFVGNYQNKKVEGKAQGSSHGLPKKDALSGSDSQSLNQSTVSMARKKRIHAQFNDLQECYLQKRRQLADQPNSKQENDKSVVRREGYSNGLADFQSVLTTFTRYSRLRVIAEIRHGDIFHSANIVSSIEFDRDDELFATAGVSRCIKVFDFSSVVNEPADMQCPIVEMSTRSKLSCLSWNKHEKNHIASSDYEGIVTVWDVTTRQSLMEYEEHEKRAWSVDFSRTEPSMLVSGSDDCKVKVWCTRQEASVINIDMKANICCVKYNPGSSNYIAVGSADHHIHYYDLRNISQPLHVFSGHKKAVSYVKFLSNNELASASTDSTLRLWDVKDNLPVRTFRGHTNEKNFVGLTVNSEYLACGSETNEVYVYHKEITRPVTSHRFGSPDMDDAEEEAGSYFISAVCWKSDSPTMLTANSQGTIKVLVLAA

[2] = target: T2, GSRhino-TAP-tagged DET1 (DE-ETIOLATED1) (Arabidopsis) (UniProt P48732); assay: affinity purification with mass spectrometry
T2 sequence: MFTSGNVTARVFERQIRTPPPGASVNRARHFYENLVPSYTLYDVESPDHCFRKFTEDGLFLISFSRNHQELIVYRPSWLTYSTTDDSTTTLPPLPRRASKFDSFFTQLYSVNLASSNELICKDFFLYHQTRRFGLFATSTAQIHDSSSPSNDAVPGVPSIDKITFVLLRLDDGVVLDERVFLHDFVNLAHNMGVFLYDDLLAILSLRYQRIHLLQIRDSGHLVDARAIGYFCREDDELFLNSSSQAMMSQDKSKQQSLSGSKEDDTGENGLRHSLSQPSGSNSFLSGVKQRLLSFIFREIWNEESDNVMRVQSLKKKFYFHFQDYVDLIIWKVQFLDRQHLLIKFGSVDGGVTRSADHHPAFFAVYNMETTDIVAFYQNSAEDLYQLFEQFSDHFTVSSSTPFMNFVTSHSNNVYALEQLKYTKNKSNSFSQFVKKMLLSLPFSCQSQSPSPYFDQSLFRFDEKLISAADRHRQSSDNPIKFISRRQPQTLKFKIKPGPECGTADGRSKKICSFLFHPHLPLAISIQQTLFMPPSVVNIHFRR

binding [1]: no binding
binding [2]: binds
Molecule: CSN5 (signalosome subunit 5)

binding [1]: binds
binding [2]: binds
Molecule: DAMAGED DNA BINDING PROTEIN1 (DDB1)

Molecule: CRY1 (from UniProt Q43125 1-681)
binding [1]: binds

binding [1]: no binding
binding [2]: binds
Molecule: CSN6 (signalosome subunit 6)

Molecule: CRY2 (from UniProt Q96524 1-612)
binding [1]: binds

binding [1]: no binding
binding [2]: binds
B1: CSN7 (signalosome subunit 7) (protein, UniProt Q94JU3 1-260)
chain: MDIEQKQAEIIDQLVKRASTCKSEALGPLIIEATSHPSLFAFSEILALPNVAQLEGTTDSVYLDLLRLFAHGTWGDYKCNATRLPHLSPDQILKLKQLTVLTLAESNKVLPYDTLMVELDVSNVRELEDFLINECMYAGIVRGKLDQLKRCFEVPFAAGRDLRPGQLGNMLHTLSNWLNTSENLLISIQDKIKWADNMSEMDKKHRKEAEEGVEEVKKSLSMKGDVDIRGNKEMFGEPSGVMDYEEDGIRPKRRRHPVTR

binding [1]: binds
B2: SPA4 (protein, UniProt Q94BM7 1-794)
chain: MKGSSESSSRGLNNTSGVSEFCTDGSKSLSHIDYVRSLLGSHKEANLGGLDDDSIVRALECEDVSLRQWLDNPDRSVDAFECFHVFRQIVEIVNAAHSQGIVVHNVRPSCFVMSSFNNVSFIESASCSDSGSDEDATTKSREIGSSRQEEILSERRSKQQEEVKKQPFPMKQILAMEMSWYTSHEEDNGSLCNCASDIYRLGVLLFELFCPVSSREEKSRTMSSLRHRVLPPQILLNWPKEASFCLWLLHPEPSCRPSMSELLQSEFINEPRENLEEREAAMELRDRIEEQELLLEFLFLIQQRKQEAADKLQDTISLLSSDIDQVVKRQLVLQQKGRDVRSFLASRKRIRQGAETTAAEEENDDNSIDEESKLDDTLESTLLESSRLMRNLKKLESVYFATRYRQIKAATAAEKPLARYYSALSCNGRSSEKSSMSQPSKDPINDSRQGGWIDPFLEGLCKYLSFSKLRVKADLKQGDLLNSSNLVCAIGFDRDGEFFATAGVNKKIKIFECESIIKDGRDIHYPVVELASRSKLSGICWNSYIKSQVASSNFEGVVQVWDVARNQLVTEMKEHEKRVWSIDYSSADPTLLASGSDDGSVKLWSINQGVSIGTIKTKANICCVQFPSETGRSLAFGSADHKVYYYDLRNPKLPLCTMIGHHKTVSYVRFVDSSTLVSSSTDNTLKLWDLSMSISGINETPLHSFMGHTNVKNFVGLSVSDGYIATGSETNEVFVYHKAFPMPVLSYKFKTIDPVSELEVDDASQFISSVCWRGQSSTLVAANSTGNIKILEMV

binding [1]: no binding
binding [2]: binds
B3: CSN8 (signalosome subunit 8) (protein, UniProt P43255 1-197)
chain: MDLSPVKEALAAKSFDKIADICDTLMLQVASEGIEYHDDWPYAIHLLGYFYVDDCDSARFLWKRIPTAIKERKPEVVAAWGIGQKLWTHDYAGVYEAIRGYDWSQEAKDMVAAFSDLYTKRMFQLLLSAYSTITIHDLALFLGMTEDDATTYVVENGWTVDAASQMASVKKQAVKREQKVDSSKLQRLTEYVFHLEH

binding [1]: binds
B4: SPA2 (protein, UniProt Q9T014 1-1036)
chain: MMDEGSVGDVSRIDEADVAHLQFKNSEQSFKPENIEVREVKEVQVQREAGSPDCSYGVIADFLDGKNGGDHVELIGNEPCSSRQNTNDEGDVVEELTVKTCEGSSMAIVGRPSSRARLEMNRSQFLHRFPLDGDLPGSSSMSKKVIDRGTVSILRNAGKMSLPETSNGQLAIIAVNGEANEHLTNVERNPVPVEALSHEGIKTKMLSQSGFSQFFVRKTLKGKGVTFRGPPNNRSKARNMDQQTVASSGSALVIANTSAKISSSIPLAAYDGLPCLPSNTSKPSSCANPSDTHRGCGGEGLSLREWLKSERQEVNKAECMYIFRQIVDHVDCSHSQGVVLCDLRPSSFKIFKENAVKYVVSGSQRESFDSNMNKETLSQLENPLVRRRLGDTSSLSIPAKKQKSSGPSSRQWPMFQRAGGVNIQTENNDGAIQEFHFRSSQPHCSTVACPFTSVSEQLEEKWYASPEELRGDMRSASSNIYSLGILLYELLSQFQCERAREAAMSDIRHRILPPKFLSENPKEAGFCLWLLHPESSCRPSTRDILQSEVVNGIPDLYAEGLSLSIEQEDTESELLQHFLFLSQEKRQKHAGNLMEEIASVEADIEEIVKRRCAIGPPSLEEASSSSPASSVPEMRLIRNINQLESAYFAARIDAHLPEARYRLRPDRDLLRNSDNTVAEVENSETWSSDDRVGAFFDGLCKYARYSKFETRGVLRTSELNNTSNVICSLGFDRDEDYFATAGVSKKIKIYEFNSLFNESVDIHYPAIEMPNRSKLSGVCWNNYIRNYLASSDYDGIVKLWDVTTGQAISHFIEHEKRAWSVDFSEACPTKLASGSDDCSVKLWNINERNCLGTIRNIANVCCVQFSPQSSHLLAFGSSDFRTYCYDLRNLRTPWCILSGHNKAVSYAKFLDNETLVTASTDNTLKLWDLKKTTHGGLSTNACSLTFGGHTNEKNFVGLSTSDGYIACGSETNEVYAYHRSLPMPITSYKFGSIDPISGKEIEEDNNLFVSSVCWRKRSNMVVSASSNGSIKVLQLV

binding [1]: binds
binding [2]: binds
B5: SUPPRESSOR OF PHYA-105 1 (SPA1) (protein, UniProt Q9SYX2 1-1029)
chain: MPVMERVAEETVATNNIQLKARVDDVPCNKLDARHNDMVIQSETANSDCPGSSAHRNVDLTKPPPPEEAAGAKLSVEELTLGNYRIVQGSNNTNVDSPRAGKFEHLYRLARGSAFRAGDGDLDSQPRDMDQMLSRIRQQLAGAPSERQNLKPFMSRRSDQNLEAFSERLRAAGENSIMNAPALISEGVQMKTPVSSSNFSQLLLKRAMKGKGVVGKNQETPPEFVSDQDLGSKEKKLDISKSPTPHDVLPLKSSPKGNGMVSHGDGNHSKSSIGISLREFLRSSYAKREKRHGLCLFRQLVELVDSAHSKRLFLLDLRPSLFTLVPSKKLRYIGNFGKNDLESDVDEDLNRRRPVVEESSSGGRDSKKRKMDLHLNSPGNQLQATSTGRPFKRKSPVIDLNMVDARNPDSCELQQQDYIKNLSVSSVSRKQSMSTWLEEQWYTCPEEINGEDIGEKSNIYALGVLLFELLCHCESGEMHAAMMADLRHRILPPTFLSKYPKEAGFCLWLLHPEPSSRPSARDILKSELICEDDSVKSTAAAEEISELLLHFLSSLEVQKKKKASKLLQDIQTLEDDIKEAERRYSSNVSLVRSHGAIEKRVQSSPLDEHCTTSSALFVPTANTDRLMSNIRQLEDAYFFMRSQINLSSSAATARSDKTLKDRDRCSENQNENQDMSTKGKSSDQLEVFFEGLCKFARYSKFETCGTIRSGDLLNSASVVCSLSFDPDEEHIAAAGISKKIKIFDFNAFMNESVGVHYPLVEMVNKSKLSCVCWNSYIKNYLASTDYDGVVQIWDAGTGQGFSQYTEHQKRAWSVDFSPSDPTKFVSGSDDCSVKLWSINEKRSLGTIWSPANVCCVQFSSYSNHLLAFGSADYKVYCYDLRYVKTPWCTLAGHEKAVSYVKFMDSETIVSASTDNSLKLWNLNKTNSSGLSPGACSLTYKGHTNQKNFVGLSVLDGYIACGSETNEVYSYYKSLPMPMTSYKFGSVDPISGNEYFDDNGQFVSSVCWRKKSNMLVAANSTGNMKLLKLV

binding [1]: no binding
binding [2]: binds
B6: COP10 (protein, UniProt Q9LJD7 1-182)
chain: MMTPGGSGRLRPLPTAMYAGYSGTASSWVAKTSVSASGKRIQREMAELNIDPPPDCSAGPKGDNLYHWIATIIGPSGTPYEGGIFFLDIIFPSDYPFKPPKLVFKTRIYHCNVDTAGDLSVNILRDSWSPALTITKVLQAIRSIFLKPEPYSPALPVIARLYLTDREKHDEVAKEWTLRFAK

binding [1]: binds
B7: SPA3 (protein, UniProt Q9LJR3 1-845)
chain: MEGSSNSNSRGFNTSGVSDRNTEFLPVERLTTRSKPSSHVDEYVRSLFGSTSTHKSGEDDSLGIDPFVRSLEWGDVSLRQWLDKPERSVDVFECLHVFRQIVEIVNAAHSQGIVVHNVRPSCFVMSSFNHVSFIESASCSDSGSDSLEDGPISQKEIGSSRREEAVSKAIAIEEKGVYNKLLERKIEKLEEEKTQPFPMKHILAMETSWYTSPEEDFGSSSTCASDVYRLGVLLFELFCPVPSREEKSRTMSSLRHRVLPPQILLKCPKEASFCLWLLHPEPTCRPSMSDLLQSEFITEPRDNLEEREAAIELRDRIEEQESLLEFLLLIQQRKQESAYRLQDTVSLLSSDIEQVVKRQLILKKRGSSLSDFSKDDHQYTSGQPLMSFQANEEPSAFLASRKRVRQGILALENGVEVDEESQGSTLLESSRLMRNFKKLESVYFLTRRRQMKAAASGKSLTRHSPLSSENGRGSMIVSEKSSVSNPVAPKAFFNNDSRQGGWIDPFLEGLCRYLSFSQLRVKADLKQGDLLNSSNLVCALAFDREGELFATAGVNKKIKIFECNSIVNDNRDIHYPVVELAGRSKLSSLCWNSYIKSQIASSNFDGVVQIWDVARSQLVTEMKEHKKRVWSIDISSADPTLLASGSDDGTVKLWSINQGVSIGTIKTKANVCCVQFPSDSGRSLAFGSADHKVYYYDLRNPKIPLCTMIGHSKTVSYVKFVDSSTLVSSSTDNTLKLWDLSMSASGINESPLHSFTGHTNLKNFVGLSVSDGYIATGSETNEVFVYHKAFPMPVMSYMFNNTDSMSGLEVDDASQFISSICWRGQSSTLVAANSNGNIKILEMMT
